{"source": "PubChem BioAssay AID1259308 – NCATS – 2017", "test": "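Candidate targets for better recombinant protein yield in mammalian cells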 (primary screen)", "system": "human HEK293 embryonic kidney cells stably expressing firefly luciferase (HEK-CMV-Luc2-Hygro)", "reagent": "single siRNA against human genes, 0.8 pmol siRNA per well", "time to read-out": "72 h", "read-out": "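Reporter luminescence and viable-cell signal on separate replicate plates, given as percent of non-targeting control and median/MAD z-scores, plus per-cell luciferase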", "direction": "total luciferase, z-score: higher = more reporter protein produced", "rule for the call": "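An siRNA counts as active if its total luciferase robust z-score exceeds 3; genes with two or more such siRNAs out of three were retested with fresh siRNAs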", "meaning of the calls": "active = raised luciferase; inactive = no rise", "note": "Here is a random part of about 59,000 reagents tested. Over the whole deposit, about 1,510 (2.6%) got an active call. 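Calls use total luciferase alone and ignore viability, so some active siRNAs may act by altering cell number.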 Entries without a mark were called inactive. The numbers tell different reagents against one gene apart. Further read-outs or replicates are left out here."}
{"gene": "EHBP1L1", "reagent no.": 1, "total luciferase, z-score": -0.458}
{"gene": "EHBP1L1", "reagent no.": 2, "total luciferase, z-score": "3.88 (active)"}
{"gene": "EHBP1L1", "reagent no.": 3, "total luciferase, z-score": 0.642}
{"gene": "POLE", "reagent no.": 1, "total luciferase, z-score": -0.389}
{"gene": "POLE", "reagent no.": 2, "total luciferase, z-score": 0.628}
{"gene": "POLE", "reagent no.": 3, "total luciferase, z-score": 0.214}
{"gene": "PCDHGA7", "reagent no.": 1, "total luciferase, z-score": 0.507}
{"gene": "PCDHGA7", "reagent no.": 2, "total luciferase, z-score": -0.535}
{"gene": "PCDHGA7", "reagent no.": 3, "total luciferase, z-score": -0.539}
{"gene": "CYP27B1", "reagent no.": 1, "total luciferase, z-score": -1.22}
{"gene": "CYP27B1", "reagent no.": 2, "total luciferase, z-score": -0.46}
{"gene": "CYP27B1", "reagent no.": 3, "total luciferase, z-score": -1.3}

Targets listed so far whose target name starts with P or p:
{"gene": "POLE", "reagent no.": 1, "total luciferase, z-score": -0.389}
{"gene": "POLE", "reagent no.": 2, "total luciferase, z-score": 0.628}
{"gene": "POLE", "reagent no.": 3, "total luciferase, z-score": 0.214}
{"gene": "PCDHGA7", "reagent no.": 1, "total luciferase, z-score": 0.507}
{"gene": "PCDHGA7", "reagent no.": 2, "total luciferase, z-score": -0.535}
{"gene": "PCDHGA7", "reagent no.": 3, "total luciferase, z-score": -0.539}
